These results are taken from PMC10680230.

Protein sequences, listed by entry. Tags and fused reporters are not part of them.
UniProt P62258: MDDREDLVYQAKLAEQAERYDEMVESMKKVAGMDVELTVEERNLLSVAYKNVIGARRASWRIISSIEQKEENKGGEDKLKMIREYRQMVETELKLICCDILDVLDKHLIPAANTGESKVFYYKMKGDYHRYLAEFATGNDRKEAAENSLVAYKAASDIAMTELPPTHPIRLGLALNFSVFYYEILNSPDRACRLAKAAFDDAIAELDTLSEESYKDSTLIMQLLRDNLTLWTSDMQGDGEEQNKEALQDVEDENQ

Results are given in words; binding and its absence hold for the method and conditions named. In cells and extracts the contact can be indirect. Some entries that bind do so weakly or less than the wild type.

This experiment has as its target YWHAE (human (endogenous in H929)) (UniProt P62258). In words: co-IP; endogenous co-immunoprecipitation from H929 cell lysate (IP lysis buffer), Protein A/G agarose beads and anti-YWHAE at 4 °C overnight, immunoblot with anti-TRIP13; anti-IgG as non-specific control; also the untreated control of Fig. 5h.

B1: Thyroid hormone receptor-interacting protein 13 (TRIP13) (protein, UniProt Q15645 1-432)
chain: MDEAVGDLKQALPCVAESPTVHVEVHQRGSSTAKKEDINLSVRKLLNRHNIVFGDYTWTEFDEPFLTRNVQSVSIIDTELKVKDSQPIDLSACTVALHIFQLNEDGPSSENLEEETENIIAANHWVLPAAEFHGLWDSLVYDVEVKSHLLDYVMTTLLFSDKNVNSNLITWNRVVLLHGPPGTGKTSLCKALAQKLTIRLSSRYRYGQLIEINSHSLFSKWFSESGKLVTKMFQKIQDLIDDKDALVFVLIDEVESLTAARNACRAGTEPSDAIRVVNAVLTQIDQIKRHSNVVILTTSNITEKIDVAFVDRADIKQYIGPPSAAAIFKIYLSCLEELMKCQIIYPRQQLLTLRELEMIGFIENNVSKLSLLLNDISRKSEGLSGRVLRKLPFLAHALYVQAPTVTIEGFLQALSLAVDKQFEERKKLAAYI
B1: the binding entry is on record as “binds”.
